Data as given in doi:10.1101/2024.07.09.602823.

Molecular target: T1, Septin6 (human (endogenous in MDA-MB-231)) (UniProt Q14141)
T1 sequence: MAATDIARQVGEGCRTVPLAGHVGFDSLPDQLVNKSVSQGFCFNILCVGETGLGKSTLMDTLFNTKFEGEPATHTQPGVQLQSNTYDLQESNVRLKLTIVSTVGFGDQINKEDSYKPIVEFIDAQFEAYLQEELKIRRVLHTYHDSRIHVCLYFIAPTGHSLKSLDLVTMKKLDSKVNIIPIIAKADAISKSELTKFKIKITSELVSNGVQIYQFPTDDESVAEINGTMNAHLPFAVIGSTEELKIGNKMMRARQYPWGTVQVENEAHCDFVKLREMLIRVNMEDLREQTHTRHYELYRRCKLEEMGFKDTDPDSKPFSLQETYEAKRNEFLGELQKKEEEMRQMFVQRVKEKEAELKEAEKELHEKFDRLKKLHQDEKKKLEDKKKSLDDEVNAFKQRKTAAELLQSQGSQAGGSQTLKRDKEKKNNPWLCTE
Assay: co-IP

binding: binds
Substance: ΔSH3-AB-Flag (domain or fragment)

These are yes or no findings as the source states them, for the method shown. In cells and extracts the contact can be indirect. A result given as binding can be weak or reduced; the word gives no strength.
